Measured values as given in US20220054640A1, “COMPOSITIONS AND METHODS FOR THE DELIVERY OF THERAPEUTIC AGENTS ACROSS THE ROUND WINDOW MEMBRANE” (Decibel Therapeutics, Inc., priority 2018, published 2022).
Entries after “also recorded” stand apart in the source; their conditions may differ. At least one peptide structure holds a part that was inferred or is arguable (an end, a ring closure or a residue). Peptide text beside a SMILES is read from it.

Tested on: guinea pig RWM
Assay: tight junction integrity of excised RWM in ex vivo culture
Format: cell-based
Conditions: for junction protein structure in RWM: 0.1% peptide HCl salt in DMEM, 1 hour
Text: The […] peptide is hypothesized to interfere with cellular tight junctions. To assess if this mechanism is relevant to the RWM, we excise the RWM from adult guinea pigs (Elm Hill Labs, Chelmsford, Mass.) and stain for a variety of adherens and tight junction proteins. To extract the guinea pig RWM, the temporal bone was removed from freshly sacrificed guinea pig tissue and placed in PBS. An incision was then made in the roof of the bulla to expose the cochlea, followed by trimming of the temporal bone, bulla, and middle ear bones to expose the RWM. The round window niche was then removed from the cochlea and then cultured in DMEM with and without 1% […].TFA for 1 hour. This tissue was then fixed in a 4% PFA solution for 30 minutes followed by wash with PBS (3 times, 5-minute incubations). Fixed RWMs were then blocked in goat blocking serum (5% in PBS) then stained with primary antibodies against occludin (1:250, OcIn Antibody. Life Technologies Corporation, Chicago Ill.; Part #331500; mouse, IgG1, K), zona occludin-1 (ZO-1) (1:100, ZO-1/TJP1 Antibody (ZO1-1A12). Life Technologies Corporation, Chicago Ill.; Part #339100; mouse, IgG1), beta-catenin (1:250, Rabbit monoclonal [E247] to CTNNB1; Abcam, Inc., Boston, Mass. Part #ab32572), or alpha-catenin Catenin (1:100, Rabbit monoclonal [EP1793Y] to CTNNA1; Abcam, Inc., Boston, Mass. Part #ab51032) and then washed with PBS (3 times, 5-minute incubations). RWMs were then incubated in secondary antibodies (1:500, goat anti-mouse, IgG1, 647 or 1:500, goat anti-rabbit IgG, 568) and/or Alexa Fluor 488 phalloidin (1:200; Thermo Fisher Scientific) for two hours followed by wash with PBS (3 times, 5-minute incubations). After incubation in secondary antibodies (Thermo Fisher Scientific), the round window tissue was extracted from the round window niche, transferred to a microscopy slide, and a droplet of imaging solution (Flouromount) was added on top of the round window tissue. […]

Compound: CC(C)C[C@H](NC(=O)[C@H](C)NC(=O)[C@H](CC(C)C)NC(=O)[C@H](CCCCN)NC(=O)[C@H](CC(C)C)NC(=O)[C@H](C)NC(=O)[C@H](CC(C)C)NC(=O)[C@@H](N)CCCCN)C(=O)N[C@@H](CCCCN)C(=O)N[C@@H](C)C(=O)N[C@@H](CC(C)C)C(=O)N[C@@H](CCCCN)C(=O)N[C@@H](CC(C)C)C(=O)N[C@@H](C)C(=O)N[C@@H](C)C(=O)N[C@@H](CC(C)C)C(=O)N[C@@H](CCCCN)C(=O)N[C@@H](CC(C)C)C(=O)N[C@@H](C)C(=O)O (H-KLALKLALKALKLAALKLA-OH; N-terminus and C-terminus assumed)
- recovery of junction proteins in RWM (0.1% peptide HCl salt 1 hour, then 75 minutes of recovery in DMEM): alpha-catenin junctions return to normal intensity levels
- junction protein structure in RWM: alpha-catenin was disrupted, but ZO-1, beta-catenin, and actin were not
- junction protein structure in RWM (listed as KLALKLALKALKLAALKLA.HCL): alpha-catenin appeared to be disrupted, but not beta-catenin or ZO-1 structure; also recorded: depletion of alpha-catenin
